In the test the target is histone H3_(7–20)K14ac peptide (UniProt P68431). In words: condition: protein 50–100 μM in the cell, peptide 500–1000 μM in the syringe; ITC; MicroCal Auto-iTC200, 293 or 298 K, 10 mM HEPES, 100 mM NaCl, 2.5% glycerol, pH 7.3; protein 50–100 μM in the cell, peptide 500–1000 μM in the syringe; single-site binding model; both purified.

Positions count from the first letter of the chain named. These are yes or no findings as the source states them, for the method shown. Sequences can lack the tags named with a protein.

B1: CeSMARCA4 BD Tyr1220Ala (domain or fragment, UniProt G5EF53 1179-1289)
chain: DPELAEKINEMLDVILEYKNEDGELIADVFQTLPTRKELPDAYQVISKPMDFDRINKKIETGRYTVMEELNDDMNLLVNNAQTYNEEGSEIYVSSETIGKLWKEQYDKFMN
For B1, the binding result is on record as “no binding”.

B2: CeSMARCA4 BD Asn1263Ala (domain or fragment, UniProt G5EF53 1179-1289)
chain: B1 chain with A42Y, N85A
In the case of B2, the binding result is listed as “no binding”.

The record behind these values is paper PMC8506967, “Binding specificity and function of the SWI/SNF subunit SMARCA4 bromodomain interaction with acetylated histone H3K14” (The Journal of Biological Chemistry, 2021).
